From the supplement of paper PMC7666118
The other results are listed elsewhere or left out.

Protein sequences, listed by entry. Tags and fused reporters are not part of them. Lines headed by an entry give the natural chain unless they say otherwise; changes in a name come on top.
UniProt Q14966: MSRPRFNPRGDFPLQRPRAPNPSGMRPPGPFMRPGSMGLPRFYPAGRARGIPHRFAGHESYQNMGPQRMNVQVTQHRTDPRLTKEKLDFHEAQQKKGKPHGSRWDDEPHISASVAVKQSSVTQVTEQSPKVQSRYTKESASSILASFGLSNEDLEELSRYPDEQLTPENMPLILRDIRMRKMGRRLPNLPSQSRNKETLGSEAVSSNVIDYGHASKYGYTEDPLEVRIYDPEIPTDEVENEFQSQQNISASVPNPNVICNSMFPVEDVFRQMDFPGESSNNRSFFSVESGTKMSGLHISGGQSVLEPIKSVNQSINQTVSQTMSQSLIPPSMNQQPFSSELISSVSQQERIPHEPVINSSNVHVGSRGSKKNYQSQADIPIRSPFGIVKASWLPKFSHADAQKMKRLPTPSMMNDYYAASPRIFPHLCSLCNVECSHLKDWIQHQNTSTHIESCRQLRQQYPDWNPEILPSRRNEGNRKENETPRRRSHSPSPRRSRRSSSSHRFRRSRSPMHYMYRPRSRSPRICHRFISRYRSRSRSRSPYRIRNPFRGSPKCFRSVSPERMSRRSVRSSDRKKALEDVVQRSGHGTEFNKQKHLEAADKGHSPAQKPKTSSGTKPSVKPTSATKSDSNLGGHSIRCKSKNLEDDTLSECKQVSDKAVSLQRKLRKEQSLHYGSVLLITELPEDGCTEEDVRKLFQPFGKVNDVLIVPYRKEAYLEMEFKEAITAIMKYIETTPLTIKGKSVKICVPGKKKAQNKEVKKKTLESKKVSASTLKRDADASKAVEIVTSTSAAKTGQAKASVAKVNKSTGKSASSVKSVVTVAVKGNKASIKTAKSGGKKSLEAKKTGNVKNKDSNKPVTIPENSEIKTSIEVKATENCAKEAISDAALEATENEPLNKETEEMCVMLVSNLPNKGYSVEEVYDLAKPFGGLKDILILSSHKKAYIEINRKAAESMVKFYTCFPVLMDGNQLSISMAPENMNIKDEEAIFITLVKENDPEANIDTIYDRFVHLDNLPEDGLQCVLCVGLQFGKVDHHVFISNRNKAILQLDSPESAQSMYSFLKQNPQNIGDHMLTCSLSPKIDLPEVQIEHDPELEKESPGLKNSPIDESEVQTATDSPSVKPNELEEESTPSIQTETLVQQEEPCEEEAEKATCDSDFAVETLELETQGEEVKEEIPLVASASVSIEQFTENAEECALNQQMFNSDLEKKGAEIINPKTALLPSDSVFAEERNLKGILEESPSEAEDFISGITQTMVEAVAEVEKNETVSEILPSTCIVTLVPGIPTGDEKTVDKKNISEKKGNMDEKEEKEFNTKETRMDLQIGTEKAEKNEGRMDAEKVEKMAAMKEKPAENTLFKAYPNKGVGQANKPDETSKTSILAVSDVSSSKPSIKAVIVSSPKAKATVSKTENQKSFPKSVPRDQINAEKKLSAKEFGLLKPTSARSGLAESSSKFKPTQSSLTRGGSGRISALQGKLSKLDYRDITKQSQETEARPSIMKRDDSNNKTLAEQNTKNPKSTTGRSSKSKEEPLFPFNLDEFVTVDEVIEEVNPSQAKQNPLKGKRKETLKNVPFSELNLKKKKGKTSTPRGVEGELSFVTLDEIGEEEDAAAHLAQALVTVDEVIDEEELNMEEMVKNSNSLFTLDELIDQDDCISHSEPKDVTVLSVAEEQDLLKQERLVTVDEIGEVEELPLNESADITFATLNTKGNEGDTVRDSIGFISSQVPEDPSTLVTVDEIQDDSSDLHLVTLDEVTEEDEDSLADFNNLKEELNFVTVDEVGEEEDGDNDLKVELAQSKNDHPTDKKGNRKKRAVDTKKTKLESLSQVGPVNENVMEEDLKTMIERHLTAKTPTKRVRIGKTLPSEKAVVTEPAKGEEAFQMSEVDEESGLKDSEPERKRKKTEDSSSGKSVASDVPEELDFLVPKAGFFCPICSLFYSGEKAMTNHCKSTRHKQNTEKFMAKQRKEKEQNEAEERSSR
UniProt Q9P2S5: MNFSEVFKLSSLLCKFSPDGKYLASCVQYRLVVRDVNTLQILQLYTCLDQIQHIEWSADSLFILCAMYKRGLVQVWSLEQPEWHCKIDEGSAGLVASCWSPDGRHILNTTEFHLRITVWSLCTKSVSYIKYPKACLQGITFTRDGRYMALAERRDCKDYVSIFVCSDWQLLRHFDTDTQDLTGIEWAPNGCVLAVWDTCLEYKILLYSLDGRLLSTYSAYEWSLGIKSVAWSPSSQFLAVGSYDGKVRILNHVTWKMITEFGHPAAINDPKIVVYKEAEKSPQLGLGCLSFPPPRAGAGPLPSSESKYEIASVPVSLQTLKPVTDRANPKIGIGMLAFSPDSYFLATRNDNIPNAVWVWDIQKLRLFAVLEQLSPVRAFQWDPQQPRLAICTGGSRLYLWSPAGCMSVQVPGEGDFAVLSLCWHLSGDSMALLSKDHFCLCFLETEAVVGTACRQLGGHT
UniProt Q5T200: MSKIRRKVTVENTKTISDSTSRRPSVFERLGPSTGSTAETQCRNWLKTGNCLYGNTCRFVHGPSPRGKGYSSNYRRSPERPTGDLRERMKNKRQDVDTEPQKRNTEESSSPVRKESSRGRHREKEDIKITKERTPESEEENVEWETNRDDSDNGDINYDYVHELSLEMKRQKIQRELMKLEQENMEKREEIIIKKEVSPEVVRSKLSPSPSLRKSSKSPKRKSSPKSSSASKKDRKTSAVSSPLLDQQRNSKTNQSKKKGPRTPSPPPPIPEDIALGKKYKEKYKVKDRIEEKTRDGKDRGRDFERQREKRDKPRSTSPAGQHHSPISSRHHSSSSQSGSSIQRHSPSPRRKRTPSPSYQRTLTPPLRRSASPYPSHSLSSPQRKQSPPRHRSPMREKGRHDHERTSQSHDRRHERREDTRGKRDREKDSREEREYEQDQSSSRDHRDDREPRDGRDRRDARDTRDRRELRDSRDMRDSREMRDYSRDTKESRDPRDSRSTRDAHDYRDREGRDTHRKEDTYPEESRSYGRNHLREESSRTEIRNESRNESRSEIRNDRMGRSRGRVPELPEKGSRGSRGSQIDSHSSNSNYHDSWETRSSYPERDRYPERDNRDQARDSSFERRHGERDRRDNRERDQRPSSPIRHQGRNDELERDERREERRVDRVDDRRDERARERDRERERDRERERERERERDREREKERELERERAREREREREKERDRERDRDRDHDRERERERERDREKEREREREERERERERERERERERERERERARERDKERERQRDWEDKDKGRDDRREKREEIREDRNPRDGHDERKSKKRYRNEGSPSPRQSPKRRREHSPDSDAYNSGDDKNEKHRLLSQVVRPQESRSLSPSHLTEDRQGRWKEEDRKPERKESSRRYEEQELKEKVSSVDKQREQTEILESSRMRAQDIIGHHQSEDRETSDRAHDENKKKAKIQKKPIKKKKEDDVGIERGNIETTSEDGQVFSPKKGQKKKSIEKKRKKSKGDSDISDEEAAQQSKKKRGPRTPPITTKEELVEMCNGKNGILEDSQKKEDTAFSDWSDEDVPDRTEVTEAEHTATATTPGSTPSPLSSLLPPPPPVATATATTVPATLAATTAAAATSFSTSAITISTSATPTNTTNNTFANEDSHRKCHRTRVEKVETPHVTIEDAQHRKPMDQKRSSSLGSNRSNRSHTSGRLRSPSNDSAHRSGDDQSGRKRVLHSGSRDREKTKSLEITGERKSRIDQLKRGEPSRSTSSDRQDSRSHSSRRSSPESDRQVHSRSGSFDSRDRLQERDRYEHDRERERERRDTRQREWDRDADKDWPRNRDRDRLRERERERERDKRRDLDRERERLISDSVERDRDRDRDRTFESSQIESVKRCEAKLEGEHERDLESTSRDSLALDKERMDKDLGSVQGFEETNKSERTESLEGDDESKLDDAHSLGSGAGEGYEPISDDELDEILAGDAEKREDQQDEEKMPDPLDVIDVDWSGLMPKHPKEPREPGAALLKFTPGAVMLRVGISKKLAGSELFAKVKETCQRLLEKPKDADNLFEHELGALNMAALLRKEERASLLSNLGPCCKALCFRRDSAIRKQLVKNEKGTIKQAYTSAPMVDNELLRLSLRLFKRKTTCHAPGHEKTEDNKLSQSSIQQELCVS
UniProt Q8N5A5: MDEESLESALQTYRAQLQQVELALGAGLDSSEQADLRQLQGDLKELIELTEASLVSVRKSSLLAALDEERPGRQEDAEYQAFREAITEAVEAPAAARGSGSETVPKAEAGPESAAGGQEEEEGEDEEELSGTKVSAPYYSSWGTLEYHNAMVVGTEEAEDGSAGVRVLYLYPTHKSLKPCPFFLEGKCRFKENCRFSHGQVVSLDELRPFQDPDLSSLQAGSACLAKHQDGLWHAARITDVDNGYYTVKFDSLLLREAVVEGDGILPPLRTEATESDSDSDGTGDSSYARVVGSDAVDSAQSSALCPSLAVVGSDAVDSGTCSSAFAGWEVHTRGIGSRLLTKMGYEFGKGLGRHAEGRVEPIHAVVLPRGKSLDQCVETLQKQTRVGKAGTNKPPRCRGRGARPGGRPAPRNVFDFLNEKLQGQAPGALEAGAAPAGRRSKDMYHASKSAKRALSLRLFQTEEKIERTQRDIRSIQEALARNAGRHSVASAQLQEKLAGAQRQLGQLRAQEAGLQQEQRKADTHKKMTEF
UniProt Q8IWA0: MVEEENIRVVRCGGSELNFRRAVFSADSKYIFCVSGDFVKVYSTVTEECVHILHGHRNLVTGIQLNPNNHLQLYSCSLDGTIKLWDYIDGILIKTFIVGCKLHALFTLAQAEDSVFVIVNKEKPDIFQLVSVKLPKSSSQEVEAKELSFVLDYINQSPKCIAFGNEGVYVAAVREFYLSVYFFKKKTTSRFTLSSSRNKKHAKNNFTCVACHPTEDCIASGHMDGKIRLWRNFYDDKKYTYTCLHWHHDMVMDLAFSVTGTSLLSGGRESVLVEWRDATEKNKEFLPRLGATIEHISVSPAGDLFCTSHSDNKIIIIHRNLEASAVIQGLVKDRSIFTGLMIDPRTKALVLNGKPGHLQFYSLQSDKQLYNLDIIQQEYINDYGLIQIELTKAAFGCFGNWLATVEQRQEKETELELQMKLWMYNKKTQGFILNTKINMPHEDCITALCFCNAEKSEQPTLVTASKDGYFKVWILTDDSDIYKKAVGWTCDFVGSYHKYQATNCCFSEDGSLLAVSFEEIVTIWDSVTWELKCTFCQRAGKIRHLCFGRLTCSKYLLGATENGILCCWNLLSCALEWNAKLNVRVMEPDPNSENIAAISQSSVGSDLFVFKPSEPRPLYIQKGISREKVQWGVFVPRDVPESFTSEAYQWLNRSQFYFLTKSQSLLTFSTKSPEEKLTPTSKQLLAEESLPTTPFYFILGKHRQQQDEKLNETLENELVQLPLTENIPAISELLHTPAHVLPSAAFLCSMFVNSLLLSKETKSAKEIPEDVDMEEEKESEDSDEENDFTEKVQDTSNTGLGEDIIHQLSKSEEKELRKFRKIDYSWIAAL
UniProt Q9BTV6: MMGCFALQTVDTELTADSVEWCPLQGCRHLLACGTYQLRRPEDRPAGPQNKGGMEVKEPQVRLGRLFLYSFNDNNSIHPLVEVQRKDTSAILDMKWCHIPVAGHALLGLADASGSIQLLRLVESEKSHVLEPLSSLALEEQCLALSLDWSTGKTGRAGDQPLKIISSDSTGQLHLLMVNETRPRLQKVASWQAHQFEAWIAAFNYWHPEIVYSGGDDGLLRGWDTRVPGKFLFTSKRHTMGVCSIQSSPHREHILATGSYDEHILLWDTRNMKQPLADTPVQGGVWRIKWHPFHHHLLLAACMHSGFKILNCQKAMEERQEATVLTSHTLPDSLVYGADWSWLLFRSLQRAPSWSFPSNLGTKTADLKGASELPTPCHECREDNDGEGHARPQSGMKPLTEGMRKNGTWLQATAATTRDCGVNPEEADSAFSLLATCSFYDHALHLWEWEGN
UniProt Q5HYK9: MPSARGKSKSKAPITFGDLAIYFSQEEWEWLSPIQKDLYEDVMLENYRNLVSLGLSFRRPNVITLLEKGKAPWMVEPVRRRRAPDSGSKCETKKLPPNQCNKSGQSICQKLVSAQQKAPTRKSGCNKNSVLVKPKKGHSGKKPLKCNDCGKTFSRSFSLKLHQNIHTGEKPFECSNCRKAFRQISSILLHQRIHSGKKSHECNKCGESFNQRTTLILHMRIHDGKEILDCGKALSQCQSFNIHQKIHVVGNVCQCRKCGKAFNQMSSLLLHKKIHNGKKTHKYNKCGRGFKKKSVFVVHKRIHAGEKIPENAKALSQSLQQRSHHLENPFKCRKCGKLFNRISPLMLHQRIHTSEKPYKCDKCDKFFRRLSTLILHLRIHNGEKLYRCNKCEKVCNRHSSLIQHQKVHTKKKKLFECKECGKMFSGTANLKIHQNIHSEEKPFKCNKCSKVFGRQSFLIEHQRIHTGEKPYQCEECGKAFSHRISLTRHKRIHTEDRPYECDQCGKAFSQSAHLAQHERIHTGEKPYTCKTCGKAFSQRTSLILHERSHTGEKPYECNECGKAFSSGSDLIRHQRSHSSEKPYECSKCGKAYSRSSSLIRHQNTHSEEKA

These targets were tested with COc1ccc(Cn2ccc3cc(C)c(C(=O)NO)cc32)cc1 (assay: dose-dependent thermal stabilisation call (2D-TPP, DLPTP, 10% FDR) (binary (1 = stabilised)); higher = stabilised by the compound). Details: system: HL-60 intact cells; concentration range 0.04-10 µM.
Method: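 2D thermal proteome profiling in intact HL-60 cells treated with BRD-3811 (0, 0.04, 0.29, 2, 10 uM) for 90 min at 37 C, then heated 3 min at one of 12 temperatures (42-63.9 C). Soluble protein was quantified by TMT10 MS. The value is the DLPTP call of the paper: dose-dependent thermal stabilisation over all temperatures at 10% FDR (F-test of a dose-response against a flat model); one experiment, one call per tested protein.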

| Target | dose-dependent thermal stabilisation call |
| --- | --- |
| XPO1 (UniProt O14980) | inactive: 0 |
| WDR18 (UniProt Q9BV38) | inactive: 0 |
| ZNF638 (UniProt Q14966) | inactive: 0 |
| WDR70 (UniProt Q9NW82) | inactive: 0 |
| ZDHHC2 (UniProt Q9UIJ5) | inactive: 0 |
| YWHAZ (UniProt P63104) | inactive: 0 |
| WDR91 (UniProt A4D1P6) | inactive: 0 |
| WDR8 (UniProt Q9P2S5) | inactive: 0 |
| ZC3H13 (UniProt Q5T200) | inactive: 0 |
| ZGPAT (UniProt Q8N5A5) | inactive: 0 |
| YJ005_HUMAN (UniProt Q6ZSR9) | inactive: 0 |
| WDR75 (UniProt Q8IWA0) | inactive: 0 |
| WIPF2 (UniProt Q8TF74) | inactive: 0 |
| ZCCHC9 (UniProt Q8N567) | inactive: 0 |
| WDR85 (UniProt Q9BTV6) | inactive: 0 |
| YWHAH (UniProt Q04917) | inactive: 0 |
| ZNF706 (UniProt Q9Y5V0) | inactive: 0 |
| XRCC3 (UniProt O43542) | inactive: 0 |
| ZNF667 (UniProt Q5HYK9) | inactive: 0 |
| ZNF384 (UniProt Q8TF68) | inactive: 0 |

| Target | dose-dependent thermal stabilisation call |
| --- | --- |
| ZYG11BL (UniProt Q7Z7L7) | inactive: 0 |
| YWHAE (UniProt P62258) | inactive: 0 |
| WDR48 (UniProt Q8TAF3) | inactive: 0 |
| ch-TOG | inactive: 0 |
| XRCC6BP1 (UniProt Q9Y6H3) | inactive: 0 |
| WEE1 (UniProt P30291) | inactive: 0 |
| ZFYVE19 (UniProt Q96K21) | inactive: 0 |
| WDR33 (UniProt Q9C0J8) | inactive: 0 |
| WDR73 (UniProt Q6P4I2) | inactive: 0 |
| ZNF259 (UniProt O75312) | inactive: 0 |
| XRCC4 (UniProt Q13426) | inactive: 0 |
| YWHAQ (UniProt P27348) | inactive: 0 |
| WDR32 (UniProt Q5QP82) | inactive: 0 |
| ZNF830 (UniProt Q96NB3) | inactive: 0 |
| ZC3H14 (UniProt Q6PJT7) | inactive: 0 |
| ZNF853 (UniProt P0CG23) | inactive: 0 |
| ZC3H12D (UniProt A2A288) | inactive: 0 |
| XRCC2 (UniProt O43543) | inactive: 0 |
| ZMYND8 (UniProt Q9ULU4) | inactive: 0 |
| WDR19 (UniProt Q8NEZ3) | inactive: 0 |

A few values from the entries so far:
Entry for WDR32 (UniProt Q5QP82) under dose-dependent thermal stabilisation call: inactive: 0
Entry for WDR19 (UniProt Q8NEZ3) under dose-dependent thermal stabilisation call: inactive: 0
